Assay results as given in article PMC6721724, “The Intrinsically Disordered C-Terminal Domain Triggers Nucleolar Localization and Function Switch of PARN in Response to DNA Damage” (Cells, 2019).
Where a chain is given by its changes, count along the chain named. These are yes or no findings as the source states them, for the method shown. For some of these results: In cells and extracts the contact can be indirect. Some entries that bind do so weakly or less than the wild type. For some of these results: Tags and fused reporters may be left off the sequences shown. Values belong to the binder of their own block, whether it stands above or below them.

Columns and labels:
Flag-PARN-S557D (human) = target: T1, Flag-PARN-S557D (human) (UniProt O95453); test: co-IP; HEK-293T cells co-transfected with Flag-PARN (or its fragment or mutant) and HA-CBP80 or HA-CstF-50, untreated (normal conditions; for PARN with CBP80 also UV-treated cells); lysate in IP lysis buffer (50 mM Tris-HCl pH 7.4, 150 mM NaCl, 1% NP-40), RNase A treated, anti-Flag M2-agarose overnight on ice, blot with anti-HA
T1 sequence: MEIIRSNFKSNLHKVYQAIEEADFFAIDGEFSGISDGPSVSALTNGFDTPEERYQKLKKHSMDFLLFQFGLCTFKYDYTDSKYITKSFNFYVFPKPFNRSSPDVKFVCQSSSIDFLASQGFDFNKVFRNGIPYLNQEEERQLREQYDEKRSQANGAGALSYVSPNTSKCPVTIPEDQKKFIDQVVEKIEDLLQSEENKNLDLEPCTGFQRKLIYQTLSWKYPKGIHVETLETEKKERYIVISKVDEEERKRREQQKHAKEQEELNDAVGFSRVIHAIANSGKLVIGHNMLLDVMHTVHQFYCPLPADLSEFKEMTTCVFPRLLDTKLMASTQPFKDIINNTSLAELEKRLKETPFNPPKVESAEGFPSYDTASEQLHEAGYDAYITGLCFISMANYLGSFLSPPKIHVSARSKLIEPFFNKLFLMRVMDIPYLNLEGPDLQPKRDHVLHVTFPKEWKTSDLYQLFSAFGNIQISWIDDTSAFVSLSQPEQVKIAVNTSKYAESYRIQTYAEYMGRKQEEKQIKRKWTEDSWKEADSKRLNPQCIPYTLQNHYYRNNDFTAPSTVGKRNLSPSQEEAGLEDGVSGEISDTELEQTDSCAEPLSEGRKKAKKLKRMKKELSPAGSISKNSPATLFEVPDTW

Flag-PARN-S557A (human) = target: T2, Flag-PARN-S557A (human) (UniProt O95453); test: as above
T2 sequence: T1 sequence with D557A

[1] = target: T3, Flag-tagged full length PARN (poly(A)-specific ribonuclease) (human) (UniProt O95453); test: co-IP; HEK-293T cells co-transfected with Flag-PARN and HA-CstF-50, exposed to 100 J/m^2 UV light for 10 min, then 2 h in fresh medium; RNase A treated lysate, anti-Flag M2-agarose, blot with anti-HA
T3 sequence: T1 sequence with D557S

[2] = target: PARN-CTD (amino acid residues 541-639), recombinant (human) (UniProt O95453); test: cross-linking; purified protein cross-linked with 0.03% glutaraldehyde, analysed by SDS-PAGE; both purified

- binding (Flag-PARN-S557D (human)): no binding
- binding (Flag-PARN-S557A (human)): no binding
- binding [1]: binds weakly
B1: HA-tagged CstF-50 (protein, UniProt Q05048 1-431)
chain: MYRTKVGLKDRQQLYKLIISQLLYDGYISIANGLINEIKPQSVCAPSEQLLHLIKLGMENDDTAVQYAIGRSDTVAPGTGIDLEFDADVQTMSPEASEYETCYVTSHKGPCRVATYSRDGQLIATGSADASIKILDTERMLAKSAMPIEVMMNETAQQNMENHPVIRTLYDHVDEVTCLAFHPTEQILASGSRDYTLKLFDYSKPSAKRAFKYIQEAEMLRSISFHPSGDFILVGTQHPTLRLYDINTFQCFVSCNPQDQHTDAICSVNYNSSANMYVTGSKDGCIKLWDGVSNRCITTFEKAHDGAEVCSAIFSKNSKYILSSGKDSVAKLWEISTGRTLVRYTGAGLSGRQVHRTQAVFNHTEDYVLLPDERTISLCCWDSRTAERRNLLSLGHNNIVRCIVHSPTNPGFMTCSDDFRARFWYRRSTTD

- binding [2]: no binding
B2: PARN-CTD (amino acid residues 541-639), recombinant (domain or fragment, UniProt O95453 541-639)
chain: PQCIPYTLQNHYYRNNSFTAPSTVGKRNLSPSQEEAGLEDGVSGEISDTELEQTDSCAEPLSEGRKKAKKLKRMKKELSPAGSISKNSPATLFEVPDTW
